{"source": "paper PMC3585336", "target": "T1, Znf202 (mouse (cDNA from C57Bl/6JIco liver)) (UniProt Q99PG9)", "T1 sequence (looked up, limits assumed)": "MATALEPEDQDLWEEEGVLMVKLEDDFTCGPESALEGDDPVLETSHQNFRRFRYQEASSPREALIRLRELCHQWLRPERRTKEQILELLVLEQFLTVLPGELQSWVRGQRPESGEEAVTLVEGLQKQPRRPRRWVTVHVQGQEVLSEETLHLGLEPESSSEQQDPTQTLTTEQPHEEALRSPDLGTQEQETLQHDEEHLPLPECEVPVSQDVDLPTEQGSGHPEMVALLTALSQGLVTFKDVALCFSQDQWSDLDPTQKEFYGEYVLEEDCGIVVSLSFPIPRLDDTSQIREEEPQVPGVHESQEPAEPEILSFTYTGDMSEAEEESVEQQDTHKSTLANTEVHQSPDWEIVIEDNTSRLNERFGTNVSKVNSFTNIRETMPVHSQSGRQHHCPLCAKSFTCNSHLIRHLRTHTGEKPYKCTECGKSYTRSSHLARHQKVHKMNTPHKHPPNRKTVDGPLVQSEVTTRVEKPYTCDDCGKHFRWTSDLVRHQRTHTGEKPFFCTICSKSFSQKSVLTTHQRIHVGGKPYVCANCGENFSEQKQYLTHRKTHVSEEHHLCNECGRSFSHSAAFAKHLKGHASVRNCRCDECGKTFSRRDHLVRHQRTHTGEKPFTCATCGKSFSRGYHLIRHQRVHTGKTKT", "test": "EMSA", "conditions": "5 mM MgCl2, 75 mM KCl, 1 mM DTT, 0.1 mM EDTA, 2 ug BSA, 2 ug poly(dI-dC), 0.1-0.6 ug whole cell extract, protein in a lysate after overexpression, label: 32P (T4 PNK)", "note": "Construct, isoform or probe ends are uncertain for at least one entry. At least one result comes from cells or an extract, where the contact may be indirect. Negatives hold for the conditions tested. Where a protein sequence is shown, tags need not be part of it."}
{"sequence": "CCGGCGCAGCCATTAAGGAGG (double strand) [PHO consensus]", "values": [{"measurement": "binding result", "setting": "no complex even at high extract amounts", "value": "no binding"}]}
{"sequence": "GCTCTGTAGGGGTAGCTCTTCC (double strand) [apoE -564]", "values": [{"measurement": "binding result", "setting": "competed by 50-fold excess unlabeled -564", "value": "binds"}]}
{"sequence": "GTGGGGTGGGGGTGGGGGGTCC (double strand) [GnT consensus]", "values": [{"measurement": "binding result", "setting": "competed by 50-fold excess unlabeled GnT", "value": "binds"}]}
{"sequence": "TGCACATGCAGGGGTGCACACC (double strand) [apoE -678]", "values": [{"measurement": "binding result", "setting": "competed by 50-fold excess unlabeled -678", "value": "binds"}]}
